Assay results reported in PubChem BioAssay AID1671190 (National Center for Advancing Translational Sciences (NCATS), 2021).
The whole screen tested about 580,000 compounds, of which about 6,100 (1.1%) were called active. Roughly 15% stayed inconclusive and do not appear here. The call rests on the fitted dose curve; in most records, active means well fitted inhibition curve with a large enough effect; inconclusive means small, poorly fitted or top-dose-only effect, or another doubt; inactive means no such curve, though single readings can be large or run the other way. Only a part is listed here, and it is no random draw. Where no call is shown, the source filed none.

Amino acid sequences for entries named in this document (tags omitted). A change or cut given only in a name is not applied to a line headed by its entry.
UniProt P18054: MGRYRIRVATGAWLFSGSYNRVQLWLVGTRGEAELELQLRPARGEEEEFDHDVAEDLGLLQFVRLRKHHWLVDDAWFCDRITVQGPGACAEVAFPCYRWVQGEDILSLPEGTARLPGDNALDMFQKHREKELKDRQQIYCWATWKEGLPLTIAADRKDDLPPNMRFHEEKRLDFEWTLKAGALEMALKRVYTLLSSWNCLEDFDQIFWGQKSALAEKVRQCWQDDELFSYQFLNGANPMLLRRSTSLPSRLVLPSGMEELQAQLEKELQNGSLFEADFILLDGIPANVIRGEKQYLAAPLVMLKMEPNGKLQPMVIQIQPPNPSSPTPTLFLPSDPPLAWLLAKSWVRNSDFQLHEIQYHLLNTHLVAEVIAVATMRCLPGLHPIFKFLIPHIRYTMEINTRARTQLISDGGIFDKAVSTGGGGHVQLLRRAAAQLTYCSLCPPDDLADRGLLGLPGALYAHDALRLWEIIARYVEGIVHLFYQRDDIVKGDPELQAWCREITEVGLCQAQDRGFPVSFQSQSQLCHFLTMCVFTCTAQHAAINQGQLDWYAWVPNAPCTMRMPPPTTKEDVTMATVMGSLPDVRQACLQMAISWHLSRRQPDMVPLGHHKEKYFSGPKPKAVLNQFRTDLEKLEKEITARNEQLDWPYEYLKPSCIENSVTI

Molecular target: Polyunsaturated fatty acid lipoxygenase ALOX12 (Homo sapiens) (UniProt P18054)
Assay: Primary qHTS assay for inhibitors of human arachidonate 12S-lipoxygenase (ALOX12): Round 2
Conditions: purified 12hLO, xylenol orange hydroperoxide absorbance; activity change, negative = inhibition: at 0.00344 µM (top of the series)
Summary of the method: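 Purified human 12hLO (150 nM final) in 25 mM Hepes, 0.01% Triton X-100, pH 7.0 was preincubated 15 min at room temperature with compound. Then 40 uM arachidonic acid was added, 30 min. Hydroperoxide was read by Fe-XO absorbance ratio 573/405 nm.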
On the % scale 0 is the no-effect control and ±100 the full control effect; potency means the concentration at half of the fitted maximal effect.

Compound	Potency	activity change, negative = inhibition [%]
COc1cccc(C2C(C(C)=O)=C(O)C(=O)N2CCc2c[nH]c3ccccc23)c1 (stereo not drawn)	active: 5.01 µM	
COc1cc(NS(=O)(=O)c2ccc(N)cc2)nc(OC)n1		-21.8
Cc1cccc(Nc2ccncc2S(=O)(=O)NC(=O)NC(C)C)c1		5.89
O=C(O)CCC(=O)O		7.79
CCc1nc2ccccc2n1CCCCOc1cccc(C)c1	active: 39.8 µM	
COc1ccc2nc(S(=O)Cc3ncc(C)c(OC)c3C)[nH]c2c1 (stereo not drawn)		-53.3
CN(C)CC[C@@H](c1ccc(Br)cc1)c1ccccn1		-0.857
CCOC(=O)C1=C(N)Oc2ccc(Br)cc2[C@@H]1[C@@H](C#N)C(=O)OCC	active: 10 µM	
Cc1nnc(SCC2=C(C(=O)O)N3C(=O)[C@@H](NC(=O)Cn4cnnn4)[C@H]3SC2)s1		-25.7
O=c1[nH]c(=O)n([C@H]2C[C@H](O)[C@@H](CO)O2)cc1C(F)(F)F		-10.7
O=c1[nH]c2ccccc2c(=O)n1CCCl		5.12
C[C@H](N)C(=O)N[C@@H](C)C(=O)NC1[C@H]2CN(c3nc4c(cc3F)c(=O)c(C(=O)O)cn4-c3ccc(F)cc3F)C[C@@H]12 (stereo partly drawn)		-15.3
CC(C)[C@@H]1CC[C@@H](C)CC1=O		-4.7
CC(=O)c1cc2ccccc2s1		-24
CCCSC1=N/C(=C\c2ccc([N+](=O)[O-])o2)C(=O)S1	active: 39.8 µM	
O=C(O)/C=C(\CC(=O)O)C(=O)O		-11.9
CC(C)CCNC(=O)COC(=O)c1cc(-c2ccco2)nc2ccccc12	active: 6.31 µM	
CCCC(CCC)(C(=O)OCC)C(=O)OCC		-31.7
CCOCCOC(=O)/C=C/c1ccc(OC)cc1		5.94
CC/C=C(\C(=O)N[C@@H]1C(=O)N2C(C(=O)OCOC(=O)C(C)(C)C)=C(COC(N)=O)CS[C@H]12)c1csc(N)n1		16.7
C[C@H]1C[C@H](O)c2ccsc2S1(=O)=O		13
O=C1NC2(CCN(Cc3ccsc3)CC2)COc2ccccc21	active: 44.7 µM	
Cc1ccc(C(C)C)c(O)c1		-13.8

Given as labelled records: part of the list above.
CCCSC1=N/C(=C\c2ccc([N+](=O)[O-])o2)C(=O)S1
  Potency: active: 39.8 µM
CC(C)CCNC(=O)COC(=O)c1cc(-c2ccco2)nc2ccccc12
  Potency: active: 6.31 µM
